Laboratory results: paper PMC7672472 (2020)

System: MA-46 (MA) (DNA, aptamer) CTTACGACTCAGGCATTTTGCCGGGTAACGAAGTTACTGTCGTAAG
Experiment: ITC
Conditions: 20 mM Na+, 5 mM Mg2+

For `CN1CC[C@]23c4c5ccc(O)c4O[C@H]2[C@@H](O)C=C[C@H]3[C@H]1C5`, the binding was “no”.
